Reference: paper PMC4499137
Results are given in words; binding and its absence hold for the method and conditions named. For some of these results: In cells and extracts the contact can be indirect. Some entries that bind do so weakly or less than the wild type. For some of these results: Where a sequence is shown, tags or fusion partners need not be part of it. Values belong to the molecule of their own block, whether it stands above or below them.

By UniProt entry, the sequences of proteins in these tests, tags left out.
UniProt Q9BQ67: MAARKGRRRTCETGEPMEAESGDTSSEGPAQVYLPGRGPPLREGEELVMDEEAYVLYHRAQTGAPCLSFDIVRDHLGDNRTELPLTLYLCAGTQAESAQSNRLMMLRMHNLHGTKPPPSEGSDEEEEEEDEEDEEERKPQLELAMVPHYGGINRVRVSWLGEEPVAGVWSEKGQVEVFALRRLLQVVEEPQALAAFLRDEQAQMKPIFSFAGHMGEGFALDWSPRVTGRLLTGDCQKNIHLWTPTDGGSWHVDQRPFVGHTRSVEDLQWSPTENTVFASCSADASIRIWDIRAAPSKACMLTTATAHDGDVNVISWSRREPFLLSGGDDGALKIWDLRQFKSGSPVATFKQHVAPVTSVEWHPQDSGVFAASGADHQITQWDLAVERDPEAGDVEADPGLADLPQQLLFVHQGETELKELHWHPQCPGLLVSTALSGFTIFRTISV

Experiments:
GST-CDC6 = target: T1, GST-CDC6 (UniProt Q99741); test: pull-down; GST-Cdt1, GST-CDC6 or GST incubated with bacterially produced GRWD1 or its truncated mutants; collected on glutathione beads; immunoblotting with anti-GRWD1 or anti-GST; both purified
T1 sequence: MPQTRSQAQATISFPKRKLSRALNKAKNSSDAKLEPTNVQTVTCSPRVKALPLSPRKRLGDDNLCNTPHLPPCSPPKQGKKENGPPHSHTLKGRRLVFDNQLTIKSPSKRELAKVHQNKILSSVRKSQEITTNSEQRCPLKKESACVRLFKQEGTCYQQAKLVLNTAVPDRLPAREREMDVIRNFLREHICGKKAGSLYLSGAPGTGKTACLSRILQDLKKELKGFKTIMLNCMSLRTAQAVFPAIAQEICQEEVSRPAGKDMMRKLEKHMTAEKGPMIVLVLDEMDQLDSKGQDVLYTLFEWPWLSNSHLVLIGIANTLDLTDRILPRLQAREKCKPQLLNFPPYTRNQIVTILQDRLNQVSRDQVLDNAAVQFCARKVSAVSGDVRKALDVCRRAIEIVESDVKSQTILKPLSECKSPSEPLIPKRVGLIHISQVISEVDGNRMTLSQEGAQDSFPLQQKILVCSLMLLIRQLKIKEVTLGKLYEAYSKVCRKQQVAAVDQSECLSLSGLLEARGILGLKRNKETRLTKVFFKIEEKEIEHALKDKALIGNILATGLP

[1] = target: T2, endogenous CDC6 (human (endogenous in HEK293T)) (UniProt Q99741); test: co-IP; nuclear extracts from HEK293T cells immunoprecipitated with anti-CDC6 antibody; immunoblotting
T2 sequence: T1 sequence

[2] = target: T3, overexpressed CDC6 (Figure 2C) (UniProt Q99741); test: co-IP; soluble extracts from transfected HEK293T cells; first immunoprecipitation with anti-Flag, elution with Flag peptide, second immunoprecipitation with anti-T7; immunoblotting
T3 sequence: T1 sequence

[3] = target: endogenous GRWD1 (glutamate-rich WD40 repeat containing 1) (human (endogenous in HEK293T)) (UniProt Q9BQ67); test: co-IP; HEK293T cells transfected with empty or T7-Cdt1 expression vectors; immunoprecipitated with anti-GRWD1 antibody or control rabbit IgG; immunoblotting

binding (GST-CDC6): binds
Molecule: bacterially produced full length GRWD1 (from UniProt Q9BQ67 1-446)

binding [1]: binds
Molecule: endogenous GRWD1 (glutamate-rich WD40 repeat containing 1) (from UniProt Q9BQ67 1-446)

binding [2]: binds
Molecule: overexpressed GRWD1 (Figure 2C) (from UniProt Q9BQ67 1-446)

binding [3]: binds
B1: endogenous CDC6 (protein, UniProt Q99741 1-560)
chain: T1 sequence
